# Results from one PubChem assay

The results are deposited in PubChem (AID1053133; Broad Institute, 2014).

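Plate-reader measure of the Venus reporter marking one vaccinia stage in infected cells (the cell line is not named here); read time unknown. The test concentration is not given here. Percent change in Venus reporter signal; lower (more negative) values mean stronger inhibition of that viral stage.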

Values are in %. The controls that fix the scale are not given here. Common to all entries: measured here: Venus reporter, other viral stage. Part of the compounds only, not a random draw; the main read-out is not listed here.

Compound	activity change (Venus) (%)
CN1[C@@H]2Cn3c(ccc(/C=C/c4ccccc4)c3=O)[C@H]1[C@@H](C(=O)NC1Cc3ccccc3C1)[C@@H]2CO	-38.01
C[C@@H]1CN([C@@H](C)CO)C(=O)c2cc(NC(=O)C3CCCCC3)ccc2O[C@@H](C)CCCCO[C@H]1CN(C)Cc1ccc2c(c1)OCO2	-45.61
C[C@@H]1CCCCO[C@H](CN(C)CC2CCCCC2)[C@H](C)CN([C@@H](C)CO)C(=O)c2cc(NC(=O)C3CCCCC3)ccc2O1	-62.88
CO[C@H]1CN(C)C(=O)c2cc(NC(=O)c3ccc(-c4ccccc4)cc3)ccc2OC[C@@H](C)NC[C@H]1C	-69.82
C[C@@H]1CN([C@@H](C)CO)C(=O)c2cc(NC(=O)Nc3cccc4ccccc34)ccc2O[C@@H]1CN(C)CC1CCCCC1	-38.4
CCC(=O)N(C)C[C@@H]1Oc2cc(C#CC3CCCCC3)ccc2S(=O)(=O)N([C@H](C)CO)C[C@@H]1C	-48.48
O=C(NCC[C@H]1CC[C@H](NC(=O)c2cnccn2)[C@H](CO)O1)Nc1ccc(Cl)cc1	-32.87
CN(C)CC(=O)N[C@@H]1C[C@@H]2O[C@@H](CO)CC[C@@H]2O[C@@H]1CCc1ccc(-c2ccc(F)cc2)cc1	-30.44
Cc1ccc(S(=O)(=O)N(C)C[C@@H]2Oc3ncc(C#Cc4ccccc4)cc3C(=O)N([C@H](C)CO)C[C@@H]2C)cc1	-36.38
Cc1ccc(S(=O)(=O)Nc2ccc3c(c2)C(=O)N([C@@H](C)CO)C[C@@H](C)[C@H](CN(C)S(=O)(=O)c2ccc(F)cc2)OCCCC[C@@H](C)O3)cc1	-38.75
C[C@H](CO)N1C[C@H](C)[C@H](CN(C)C(=O)Nc2ccc3c(c2)OCO3)Oc2ncc(-c3cccc(C(F)(F)F)c3)cc2C1=O	-58.73
CN1c2ccc(-c3ccc(F)cc3)cc2[C@H]2[C@H](CCN2S(=O)(=O)c2cccc(F)c2)[C@H]1CO	-61.35
CC(C)CC#Cc1ccc([C@@H]2[C@@H](CO)N3C(=O)CN(C(=O)NC4CCCCC4)C[C@H]23)cc1	-37.89
O=C(C[C@H]1CC[C@@H]2[C@H](COC[C@@H](O)CN2C(=O)Nc2cc(Cl)cc(Cl)c2)O1)NCC1CCCCC1	-53.14
COc1ccc(S(=O)(=O)N[C@@H]2C=C[C@H](CC(=O)N3CCC(Cc4ccccc4)CC3)O[C@@H]2CO)cc1	-41.38
C[C@H]1CN([C@@H](C)CO)S(=O)(=O)c2ccc(Br)cc2O[C@H]1CN(C)S(=O)(=O)c1ccccc1F	-33.04
C[C@H]1CN([C@@H](C)CO)C(=O)c2cc(-c3cccnc3)cnc2O[C@H]1CN(C)Cc1ccc(Oc2ccccc2)cc1	-32.29
C[C@@H](NC(=O)C[C@@H]1CC[C@H]2[C@@H](COC[C@H](O)CN2Cc2ccc(C(F)(F)F)cc2)O1)c1ccccc1	-27.51
C[C@@H]1CCCCO[C@H](CN(C)Cc2ccc(Cl)c(Cl)c2)[C@H](C)CN([C@@H](C)CO)C(=O)c2cc(NC(=O)Cc3ccccc3)ccc2O1	-36.39
Cc1cccc(-c2ccc([C@@H]3[C@@H](CO)N4CCCCN(CCC(F)(F)F)C[C@H]34)cc2)c1	-72.97
C[C@H](CO)N1C[C@H](C)[C@H](CN(C)Cc2ccc(Oc3ccccc3)cc2)OCc2ccccc2-c2ccccc2C1=O	-33.47
O=C(C[C@@H]1CC[C@H]2[C@@H](COC[C@@H](O)CN2C(=O)Nc2ccc(Cl)c(Cl)c2)O1)NCc1ccc(Cl)cc1	-43.09
CCO[C@H]1OC(C(=O)N2CCN(Cc3ccc4c(c3)OCO4)CC2)=C[C@@H](c2ccc(Br)cc2)[C@@H]1CCCO	-37.64
CC(C)NC(=O)Nc1cccc2c1O[C@@H](CN(C)Cc1ccc(Cl)c(Cl)c1)[C@@H](C)CN([C@H](C)CO)C2=O	-22.83
CCCNC(=O)c1cc2c(c(-c3cccc(-c4cc5ccccc5o4)c3)n1)[C@@H](CCO)N(C(=O)NC(C)C)C2	-37.09
COc1cccc(CN2C[C@@H]3N[C@H](C2)C3c2ccc(-c3cccc(C#N)c3)cc2)c1 (some centres not stated)	-40.21
C[C@H](CO)N1C[C@H](C)[C@H](CN(C)C(=O)Nc2ccccc2)OCc2ccccc2-c2c(n(C)c3ccccc23)C1=O	-39.84
COc1cccc(C#Cc2ccc([C@@H]3[C@@H](CO)N4C(=O)CN(C(=O)c5ccccc5)C[C@H]34)cc2)c1	-51.15
O=C(Nc1ccccc1)N1CCCCN2[C@H](C1)[C@H](c1ccc(-c3ccccc3F)cc1)[C@@H]2CO	-57.06
C[C@@H]1CCCCO[C@H](CN(C)Cc2ccc(C(F)(F)F)cc2)[C@H](C)CN([C@H](C)CO)C(=O)c2cc(NS(=O)(=O)c3ccc(F)cc3)ccc2O1	-50.98
OC[C@@H]1[C@@H](c2ccc(-c3ccccc3)cc2)[C@H]2CN(CCC(F)(F)F)CCCCN12	-42.01
O=C(c1cccc(F)c1)N1CCCCN2[C@H](CO)[C@H](c3ccc(-c4ccc(F)cc4)cc3)[C@@H]2C1	-35.19
Cc1cccc(CN(C)C[C@@H]2Oc3ncc(-c4ccccc4)cc3C(=O)N([C@H](C)CO)C[C@@H]2C)c1	-37.74
O=C(C[C@H]1CC[C@@H]2[C@H](COC[C@@H](O)CN2S(=O)(=O)c2ccccc2)O1)NCc1ccc(-c2ccccc2)cc1	-34.02
COc1ccc(NC(=O)Nc2ccc3c(c2)C(=O)N([C@@H](C)CO)C[C@@H](C)[C@H](CN(C)Cc2ccc(Cl)c(Cl)c2)O3)cc1	-29.19
O=C(c1ccc(F)cc1)N1CC(=O)N2[C@@H](CO)[C@@H](c3ccc(C#Cc4ccc(F)cc4)cc3)[C@@H]2C1	-79.01
CC(C)(C)OC(=O)CC[C@@]12N=C(c3ccc(OCCCO)cc3)O[C@@H]1c1ccccc1CN(Cc1ccccc1)C2=O	-50
C[C@H]1CN([C@@H](C)CO)S(=O)(=O)c2ccc(/C=C/c3ccccc3)cc2O[C@@H]1CN(C)C(=O)Nc1cccc(F)c1	-77.59
C[C@H]1CN([C@@H](C)CO)S(=O)(=O)c2ccc(C#Cc3ccccc3F)cc2O[C@@H]1CN(C)C(=O)Cc1ccccc1	-27.02
C[C@@H]1CN([C@H](C)CO)C(=O)Cc2cc(NS(=O)(=O)c3ccc(Cl)cc3)ccc2O[C@@H]1CN(C)Cc1ccc(C(F)(F)F)cc1	-47.2
C[C@@H]1CN([C@H](C)CO)C(=O)c2cc(NC(=O)NC3CCCCC3)ccc2O[C@@H](C)CCCCO[C@H]1CN(C)C(=O)Nc1ccccc1	-27.88
COc1ccccc1C#Cc1ccc([C@H]2[C@@H](CO)N3CCCCN(C(=O)C4CC4)C[C@H]23)cc1	-61.55
COc1ccc2c3c(n(C)c2c1)[C@H](CO)N(C(=O)c1ccccc1)CC31CCN(CC2CC2)CC1	-23.79
Cc1noc(C)c1S(=O)(=O)Nc1ccc2c(c1)C(=O)N([C@H](C)CO)C[C@H](C)[C@H](CN(C)Cc1ccc(C(F)(F)F)cc1)OCCCC[C@H](C)O2	-75.98
COc1ccc(CN(C)C[C@@H]2OCCCC[C@@H](C)Oc3ccc(NC(=O)c4ccccc4)cc3C(=O)N([C@H](C)CO)C[C@H]2C)cc1	-42.86
CCCC#Cc1cnc2c(c1)C(=O)N([C@@H](C)CO)C[C@@H](C)[C@@H](CN(C)C(=O)Nc1cccc(F)c1)O2	-37.82
C[C@H](CO)N1C[C@H](C)[C@@H](CN(C)Cc2ccc(Cl)c(Cl)c2)Oc2ccc(NS(=O)(=O)c3ccc(Cl)cc3)cc2CC1=O	-76.22
C[C@@H]1CN([C@@H](C)CO)C(=O)Cc2cc(NS(=O)(=O)c3ccccc3)ccc2O[C@H]1CN(C)Cc1ccc(C(F)(F)F)cc1	-71.45
C[C@@H]1CN([C@@H](C)CO)C(=O)c2cc(C#CC3CCCCC3)cnc2O[C@@H]1CN(C)C(=O)C1CCCCC1	-42.12
C[C@H](CO)N1C[C@H](C)[C@H](CN(C)Cc2ccccc2)OCCCC[C@H](C)Oc2ccc(NS(=O)(=O)c3ccc(Cl)cc3)cc2C1=O	-71.41
OC[C@@H]1[C@H](c2ccc(/C=C/c3ccccc3)cc2)[C@H]2CN(CCC(F)(F)F)CCCCN12	-54.85
CC(=O)N(C)C[C@H]1Oc2cc(C#Cc3cccc(F)c3)ccc2S(=O)(=O)N([C@H](C)CO)C[C@H]1C	-27.28
C[C@H](CO)N1C[C@H](C)[C@@H](CN(C)Cc2ccc(Oc3ccccc3)cc2)Oc2ccc(NS(=O)(=O)c3ccc(Cl)cc3)cc2C1=O	-36.28
C[C@H]1CCCCO[C@H](CN(C)Cc2ccc3c(c2)OCO3)[C@@H](C)CN([C@@H](C)CO)C(=O)c2cc(NC(=O)Nc3ccccc3)ccc2O1	-51.01
C[C@H](CO)N1C[C@H](C)[C@H](CN(C)Cc2ccc(-c3ccccc3)cc2)Oc2ncc(C#CCN(C)C)cc2C1=O	-32.89
Cc1ccccc1S(=O)(=O)N(C)C[C@H]1OCc2ccccc2-c2ccccc2C(=O)N([C@@H](C)CO)C[C@H]1C	-31.25
CC(C)CC#Cc1ccc2c(c1)O[C@H](CN(C)C(=O)c1ccccc1F)[C@H](C)CN([C@H](C)CO)S2(=O)=O	-40.11
C[C@@H]1CN([C@@H](C)CO)C(=O)c2cc(NC(=O)Cc3ccccc3)ccc2O[C@H]1CN(C)Cc1ccc(Cl)c(Cl)c1	-44.68
O=C(Cc1cccnc1)N1CCCCN2[C@H](C1)[C@H](c1ccc(C#CC3CCCC3)cc1)[C@@H]2CO	-77.59

The last 5 entries again:

| Compound | activity change (Venus) (%) |
|---|---|
| `C[C@H](CO)N1C[C@H](C)[C@H](CN(C)Cc2ccc(-c3ccccc3)cc2)Oc2ncc(C#CCN(C)C)cc2C1=O` | -32.89 |
| `Cc1ccccc1S(=O)(=O)N(C)C[C@H]1OCc2ccccc2-c2ccccc2C(=O)N([C@@H](C)CO)C[C@H]1C` | -31.25 |
| `CC(C)CC#Cc1ccc2c(c1)O[C@H](CN(C)C(=O)c1ccccc1F)[C@H](C)CN([C@H](C)CO)S2(=O)=O` | -40.11 |
| `C[C@@H]1CN([C@@H](C)CO)C(=O)c2cc(NC(=O)Cc3ccccc3)ccc2O[C@H]1CN(C)Cc1ccc(Cl)c(Cl)c1` | -44.68 |
| `O=C(Cc1cccnc1)N1CCCCN2[C@H](C1)[C@H](c1ccc(C#CC3CCCC3)cc1)[C@@H]2CO` | -77.59 |